Data: patent US7094407B2 (LG Household & Health Care Ltd., priority 2002, dated 2006)

Assay: general procedure: Fmoc solid-phase peptide synthesis; HMP resin; HOBT
Details: whole synthesis, scale 0.25 mmol

In the case of KKKKKKKKKKTKS, the isolated yield is reported as “approximately 30.5%”.

Plain letter strings leave the end groups untold.
